{"sequences": {"note": "The chains behind the UniProt entries cited, without tags or fusion partners. Where a name states a change or a piece, a line headed by the entry shows the natural chain unless it says otherwise.", "UniProt Q14790": "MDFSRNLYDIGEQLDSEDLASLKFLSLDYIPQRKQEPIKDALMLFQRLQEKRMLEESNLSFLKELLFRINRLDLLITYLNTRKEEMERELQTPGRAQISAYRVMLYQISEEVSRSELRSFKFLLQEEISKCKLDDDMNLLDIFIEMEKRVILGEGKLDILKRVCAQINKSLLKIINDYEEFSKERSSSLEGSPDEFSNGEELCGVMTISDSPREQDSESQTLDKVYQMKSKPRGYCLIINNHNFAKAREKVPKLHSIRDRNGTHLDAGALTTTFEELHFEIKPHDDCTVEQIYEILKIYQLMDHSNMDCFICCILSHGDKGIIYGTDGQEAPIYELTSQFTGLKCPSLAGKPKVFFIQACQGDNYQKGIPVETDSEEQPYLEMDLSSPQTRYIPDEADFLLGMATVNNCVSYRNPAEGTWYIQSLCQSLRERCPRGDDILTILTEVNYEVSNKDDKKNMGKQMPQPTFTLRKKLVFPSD"}, "source": "paper PMC3477315", "biological_target": "35S-labeled IVT procaspase-8 C360A (UniProt Q14790)", "test": "pull-down; in vitro DISC reconstitution as above; procaspase-8 with itself (DED chain), inferred from the amount of IVT 35S-procaspase-8 recruited to the bead-bound complex", "note": "Results are given in words; binding and its absence hold for the method and conditions named. In cells and extracts the contact can be indirect. Some binding calls cover weakened binding; strength is not graded here.", "data": [{"substance": "35S-labeled IVT procaspase-8 C360A (from UniProt Q14790 1-479) (enzyme)", "values": [{"measurement": "binding", "result": "binds"}]}]}
